In publication doi:10.1101/103333:
Where two headings read alike, the source gives them in different places. These are yes or no findings as the source states them, for the method shown. For part of these data: In cells and extracts the contact can be indirect. Some binding calls cover weakened binding; strength is not graded here. For part of these data: Where a sequence is shown, tags or fusion partners need not be part of it. Values belong to the molecule of their own block, whether it stands above or below them.

Protein sequences, listed by entry. Tags and fused reporters are not part of them. Lines headed by an entry give the natural chain unless they say otherwise; changes in a name come on top. Chains listed by the source or under a name are the forms on record and can include a tag or linker.
UniProt P14618: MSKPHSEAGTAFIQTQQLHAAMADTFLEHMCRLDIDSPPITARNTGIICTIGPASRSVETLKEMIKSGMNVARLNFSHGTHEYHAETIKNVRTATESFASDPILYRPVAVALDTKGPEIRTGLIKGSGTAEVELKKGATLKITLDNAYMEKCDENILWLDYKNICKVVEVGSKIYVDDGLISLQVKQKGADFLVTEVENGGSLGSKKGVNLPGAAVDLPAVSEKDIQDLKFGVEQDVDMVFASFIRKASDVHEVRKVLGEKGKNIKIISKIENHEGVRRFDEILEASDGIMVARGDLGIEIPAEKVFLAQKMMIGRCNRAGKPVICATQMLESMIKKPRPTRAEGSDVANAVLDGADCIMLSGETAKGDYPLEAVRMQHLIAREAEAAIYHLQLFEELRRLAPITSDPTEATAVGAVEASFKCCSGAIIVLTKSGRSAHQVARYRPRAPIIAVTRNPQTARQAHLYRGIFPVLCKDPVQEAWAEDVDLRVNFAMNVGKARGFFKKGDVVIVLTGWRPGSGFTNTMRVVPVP
VC-PKM1 (P14618-2, form named): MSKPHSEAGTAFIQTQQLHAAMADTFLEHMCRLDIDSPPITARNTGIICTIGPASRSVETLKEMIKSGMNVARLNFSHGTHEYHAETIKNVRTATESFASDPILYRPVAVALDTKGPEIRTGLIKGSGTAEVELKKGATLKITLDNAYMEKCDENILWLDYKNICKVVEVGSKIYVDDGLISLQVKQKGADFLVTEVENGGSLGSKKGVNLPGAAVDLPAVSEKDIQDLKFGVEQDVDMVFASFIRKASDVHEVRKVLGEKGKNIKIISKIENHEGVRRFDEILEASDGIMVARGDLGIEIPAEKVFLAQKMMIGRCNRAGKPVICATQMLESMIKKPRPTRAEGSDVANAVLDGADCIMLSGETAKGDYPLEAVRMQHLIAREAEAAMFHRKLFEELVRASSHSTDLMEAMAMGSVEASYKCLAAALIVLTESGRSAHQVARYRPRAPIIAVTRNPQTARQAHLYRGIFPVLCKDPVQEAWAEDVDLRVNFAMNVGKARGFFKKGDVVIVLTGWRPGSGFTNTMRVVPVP

Key:
[1] = molecular target: Flag-AKAP-Lbc (expressed in HEK 293 cells) (UniProt Q12802); assay: co-IP
[2] = molecular target: T1, GST-AKAP-Lbc fragment 6 (AKAP-Lbc 2337-2817) (UniProt Q12802); assay: pull-down
T1 sequence: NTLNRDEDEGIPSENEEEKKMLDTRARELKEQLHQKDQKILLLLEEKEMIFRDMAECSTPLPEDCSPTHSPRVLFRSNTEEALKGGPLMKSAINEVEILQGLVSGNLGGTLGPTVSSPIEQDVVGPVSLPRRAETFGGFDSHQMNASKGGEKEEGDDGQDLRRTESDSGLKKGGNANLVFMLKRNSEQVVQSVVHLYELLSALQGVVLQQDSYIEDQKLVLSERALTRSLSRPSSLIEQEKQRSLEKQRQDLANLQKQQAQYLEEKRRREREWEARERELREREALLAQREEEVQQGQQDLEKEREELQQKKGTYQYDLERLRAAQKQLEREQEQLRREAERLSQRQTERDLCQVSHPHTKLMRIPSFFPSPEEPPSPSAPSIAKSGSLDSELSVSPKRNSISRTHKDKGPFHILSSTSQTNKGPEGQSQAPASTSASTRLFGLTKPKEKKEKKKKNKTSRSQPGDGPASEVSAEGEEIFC

[3] = molecular target: T2, GST-AKAP-Lbc fragment 5 (AKAP-Lbc 1923-2366) (UniProt Q12802); assay: pull-down
T2 sequence: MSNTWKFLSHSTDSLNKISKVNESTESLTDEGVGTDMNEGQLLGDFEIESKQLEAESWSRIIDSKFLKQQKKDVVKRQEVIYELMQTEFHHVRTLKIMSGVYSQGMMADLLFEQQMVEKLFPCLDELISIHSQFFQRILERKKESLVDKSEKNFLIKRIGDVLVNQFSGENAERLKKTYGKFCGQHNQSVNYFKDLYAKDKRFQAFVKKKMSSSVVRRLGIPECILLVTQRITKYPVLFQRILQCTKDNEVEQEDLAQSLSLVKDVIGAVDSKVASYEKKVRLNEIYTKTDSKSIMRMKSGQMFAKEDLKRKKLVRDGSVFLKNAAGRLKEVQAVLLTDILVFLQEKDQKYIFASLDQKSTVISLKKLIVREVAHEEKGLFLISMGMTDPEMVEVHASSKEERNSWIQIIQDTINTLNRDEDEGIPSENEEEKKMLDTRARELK

VN-AKAP-Lbc = VN-AKAP-Lbc (UniProt Q12802); assay: split reporter
[4] = molecular target: endogenous AKAP-Lbc (HeLa) (human (endogenous in HeLa)) (UniProt Q12802); assay: co-IP
[5] = molecular target: Flag-AKAP-Lbc (expressed in HeLa cells) (UniProt Q12802); assay: co-IP
[6] = molecular target: Flag-AKAP-Lbc (expressed in HEK 293 cells) (UniProt Q12802); assay: co-IP; remark: listed apart in the source
full length HA-PKM2 = full length HA-PKM2 (UniProt P14618); assay: co-IP

Molecule: His-PKM2 (from UniProt P14618 1-531) (enzyme)
- binding [2]: binds
- binding [3]: binds

Molecule: VC-PKM1 (from UniProt P14618-2 1-531) (enzyme)
- binding (VN-AKAP-Lbc): binds weakly

Molecule: endogenous PKM2 (HeLa) (from UniProt P14618 1-531) (enzyme)
- binding [4]: binds
- binding [5]: binds

B1: Myc-AKAP-Lbc fragment 5 (domain or fragment, UniProt Q12802-2 1923-2366)
chain: T2 sequence
- binding (full length HA-PKM2): binds

B2: Myc-AKAP-Lbc fragment 6 (domain or fragment, UniProt Q12802-2 2337-2817)
chain: T1 sequence
- binding (full length HA-PKM2): binds

Other lines, results leading:

- binding [1]: no binding
Molecule: HA-PKM2 1-303 (from UniProt P14618 1-303) (domain or fragment)

- binding [1]: binds
Molecule: HA-PKM2 1-439 (from UniProt P14618 1-439) (domain or fragment)

- binding (VN-AKAP-Lbc): binds
Molecule: VC-PKM2 (from UniProt P14618 1-531) (enzyme)

- binding [6]: binds
- binding [1]: binds
Molecule: full length HA-PKM2 (from UniProt P14618 1-531) (enzyme)
